Primary screen of a compound library

Amino acid sequences for entries named in this document (tags omitted).
UniProt E9BF75, entry or part of it: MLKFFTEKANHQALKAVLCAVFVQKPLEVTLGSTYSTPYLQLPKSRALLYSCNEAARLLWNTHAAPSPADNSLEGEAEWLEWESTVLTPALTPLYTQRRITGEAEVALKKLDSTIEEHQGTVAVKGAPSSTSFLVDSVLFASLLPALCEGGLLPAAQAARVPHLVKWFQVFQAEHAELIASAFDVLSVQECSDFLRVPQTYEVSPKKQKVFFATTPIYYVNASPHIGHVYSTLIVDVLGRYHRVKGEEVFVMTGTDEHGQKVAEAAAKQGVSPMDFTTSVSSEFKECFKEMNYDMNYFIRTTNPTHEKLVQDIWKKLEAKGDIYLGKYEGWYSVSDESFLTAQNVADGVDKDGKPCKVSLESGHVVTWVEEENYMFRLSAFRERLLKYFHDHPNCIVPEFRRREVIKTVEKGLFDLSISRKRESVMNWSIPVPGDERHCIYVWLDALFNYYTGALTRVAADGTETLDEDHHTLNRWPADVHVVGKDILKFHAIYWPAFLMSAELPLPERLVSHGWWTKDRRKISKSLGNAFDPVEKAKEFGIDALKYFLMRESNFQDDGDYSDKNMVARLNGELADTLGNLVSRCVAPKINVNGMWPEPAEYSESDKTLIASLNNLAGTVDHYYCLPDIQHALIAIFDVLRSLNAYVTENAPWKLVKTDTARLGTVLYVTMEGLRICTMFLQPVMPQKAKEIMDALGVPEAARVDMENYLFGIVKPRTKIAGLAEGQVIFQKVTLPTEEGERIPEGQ

From ChEMBL document CHEMBL3988442, “University of Dundee, Small-Polar-MMV Screening Library” (2021).

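Methionyl-tRNA synthetase (putative), Leishmania donovani (UniProt E9BF75). Primary screen of methionyl-tRNA synthetase; the read-out is not stated. The test concentration is not given. The values are filed as inhibition. Of about 68,000 compounds tested this way, about 24 (0.035%) reached 50% or more in at least one test.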

Results are percentages, as filed. The controls that fix the scale are not given in the record; negative values are as filed. The compounds are a random part of those screened.

- Cc1cc(C)cc(N(C)S(=O)(=O)c2cc(C(=O)O)cs2)c1 | 8.497%
- Cc1cnc(C(=O)N2CCC3(CCCN(c4nncs4)C3)C2)cn1 (stereo not drawn) | 18.49%
- c1ccc(CCN2CCOC3(CCc4ccccc43)C2)nc1 (stereo not drawn) | 4.032%
- O=C1COC2(CCN(CC3CC3)CC2)CN1c1cncnc1 | 18.73%
- COC(=O)c1cccc(S(=O)(=O)NC(=O)CC2CCCC2)c1 | 1.504%
- CS(=O)(=O)CCOCCNc1ccc(Br)cn1 | 13.86%
- Cc1ccc(Sc2nccn(C)c2=O)cc1 | 2.957%
- CCn1ccnc1CN1CCN(c2nc(C)cc(OC)n2)CC1 | 8.614%
- Cc1cc(CNC(=O)C2CCCCN2C(=O)OC(C)(C)C)no1 (stereo not drawn) | 7.807%
- Cc1ccc(CNCC2CCN(CC(O)c3ccccc3)CC2)o1 (stereo not drawn) | 22.06%
- CC(C)c1nc2c(n1C)CCN(Cc1nc(-c3ccco3)no1)C2 | 12.85%
- NC1(c2nc(-c3ccccc3)cc(=O)[nH]2)CCCC1 | 15.86%
- Cc1nc(NC(=O)c2nn(-c3ccc(F)cc3C)cc2O)n[nH]1 | 15.45%
- O=C(O)CNC(=O)Cc1csc(-c2cccc(Cl)c2)n1 | 0.5714%
- COc1ccc(C)c(NC(=O)NCc2ncnn2C)c1 | 4.749%
- CC(=O)Nc1nc(C(=O)NC(C)c2ccncc2)cs1 (stereo not drawn) | 1.718%
- O=C(c1cnccn1)N1C[C@@H]2CCN(c3cnccn3)C[C@@H]2C1 | 9.524%
- CC(C)n1ncc2c1NC(=O)CC21C(=O)Nc2c(Cl)cccc21 (stereo not drawn) | 13.69%
- CCOc1ccc(CN2CCOCC2c2[nH]ncc2C)cc1CO (stereo not drawn) | 15.12%
- CC(C)(C)C(=O)N1CCCC(c2ncncc2-c2ccncc2)C1 (stereo not drawn) | 11.65%
- COCc1nc(CNC2CCC3(CCNCC3)CC2)no1 | 10.44%
- Cc1cnc2c(C(=O)N3CCCC(OCc4ccccn4)C3)cnn2c1 (stereo not drawn) | 9.756%
- Cc1n[nH]c(C2CN(Cc3nnc(C4CCC4)o3)CCO2)n1 (stereo not drawn) | 20.56%
- Cc1cc(Cn2cc(C#N)c(=O)c3ccccc32)no1 | 9.409%
- CC(C)Nc1ncnc2c1CCN(C(=O)c1ccccc1F)CC2 | 11.33%
- CCCOC(C)C(=O)NCc1cc2n(n1)CCCN(C1CCCCC1)C2 (stereo not drawn) | 16.9%
- O=S(=O)(CCO)Cc1ccc(OC(F)F)cc1 | 12.41%
- CC(O)CN1CCC(CNCc2ccccc2Cl)CC1 (stereo not drawn) | 12.11%
- Cc1noc(C)c1CN1CCOC(CNc2cccnn2)C1 (stereo not drawn) | 9.036%
- CCS(=O)(=O)N1CC[C@@H]2[C@H](CC1)N(Cc1cccc(C)n1)CCS2(=O)=O | 10.73%
- CCN(CC)C(=O)[C@@H]1C[C@H](NC(=O)c2cccn2C(C)C)CN1C | 10.2%
- Cc1cccc(CN2C(=O)CC[C@@H]3[C@H]2CCN3Cc2cccnc2)n1 | 13.02%